# Measurements: PMC12670160, “A drug-repurposing screen of FDA- and EMA-approved drugs identifies two NF-κB inhibitors active against eumycetoma” (Journal of Antimicrobial Chemotherapy, 2025)
# Structures can show the parent of a compound that is named as a salt. About 130 (2.5%) of roughly 5,300 compounds showed an effect of 50% or more. The list shows a part of the results. Square brackets hold non-standard residues; d marks the D form. Peptide text beside a SMILES is read from it.
# System: M. mycetomatis strain mm55
# Settings: primary screen, metabolic activity vs growth control; 96 h, 2 µM; inhibitor
row,Compound,% viability [%]
1,"NCCc1c[nH]cn1 [ONC0000370, histamine dihydrochloride]",82.94
2,"Cc1ccc(-c2csc3ncnc(SCCC(=O)O)c23)cc1 [ONC0001669, ttp22]",87.44
3,"CC(C)=CCC[C@](C)(O[C@@H]1O[C@H](CO)[C@@H](O)[C@H](O)[C@H]1O)[C@H]1CC[C@]2(C)[C@@H]1[C@H](O)C[C@@H]1[C@@]3(C)CC[C@H](O)C(C)(C)[C@@H]3CC[C@]12C [ONC0002211, ginsenoside ck]",95.28
4,"CCN[C@H]1CN(CCCOC)S(=O)(=O)c2sc(S(N)(=O)=O)cc21 [ONC0004510, brinzolamide]",60.19
5,"Cc1ncc(C[n+]2csc(CCO)c2C)c(N)n1 [ONC0004188, thiamine hydrochloride]",71.41
6,"COc1ccc2c(C(=S)N(C)CC(=O)O)cccc2c1C(F)(F)F [ONC0001130, tolrestat]",91.42
7,"CC(C)(N)CO.Cn1c(=O)c2[nH]c(Br)nc2n(C)c1=O [ONC0003989, pamabrom]",96.32
8,"C=CC(N)CCC(=O)O (stereo not shown) [ONC0003417, vigabatrin]",74.89
9,"NS(=O)(=O)c1cc(C2(O)NC(=O)c3ccccc32)ccc1Cl (stereo not shown) [ONC0000305, chlorthalidone]",91.53
10,"COc1cc(OC)cc(-c2ccc3c(-c4ccc(F)cc4)n[nH]c3n2)c1 [ONC0001726, apck110]",106.3
11,"CC(C)(C)C(=O)CN1C(=O)[C@H](NC(=O)Nc2cccc(C(=O)O)c2)CN(C2CCCCC2)c2ccccc21 [ONC0000935, nastorazepide]",59.25
12,"O=C(C(c1ccccc1)c1ccccc1)N1CCN(CC(O)COc2cccc3ncccc23)CC1 (stereo not shown) [ONC0001368, dofequidar fumarate]",112
13,"CC(=O)OCC(=O)[C@@]1(O)CC[C@H]2[C@@H]3CCC4=CC(=O)CC[C@]4(C)[C@@]3(F)[C@@H](O)C[C@@]21C [ONC0000716, fludrocortisone acetate]",64.5
14,"O=C(O)CCCCCCCC(=O)O [ONC0003021, azelaic acid]",89.13
15,"O=C(O)CN1C(=O)c2cccc3cccc(c23)C1=O [ONC0000703, alrestatin]",120.2
16,"CC[N+](C)(CC)CCOC(=O)C1c2ccccc2Oc2ccccc21 [ONC0002827, methantheline]",92.6
17,"Cc1ccc(C(=O)c2ccc(CC(=O)O)n2C)cc1 [ONC0000546, tolmetin sodium]",114.1
18,"CCCCN(CCCC)CCCOC(=O)c1ccc(N)cc1 [ONC0002425, butacaine sulfate]",90.95
19,"Cc1ccc2c(c1CCC(=O)O)CC[C@@H](NS(=O)(=O)c1ccc(Cl)cc1)C2 [ONC0001303, terutroban]",45.19
20,"CC(=O)OCC(=O)[C@@]1(O)CC[C@H]2[C@@H]3CCC4=CC(=O)C=C[C@]4(C)[C@@]3(Cl)[C@@H](Cl)C[C@@]21C [ONC0004015, dichlorisone acetate]",80.76

row,Compound,% viability [%]
1,"CC(C)Oc1cccc(CC(=O)N2CCC[C@](CC[N+]34CCC(c5ccccc5)(CC3)CC4)(c3ccc(Cl)c(Cl)c3)C2)c1 [ONC0001589, sr140333]",65.88
2,"CC(C)c1c(CN(C)C(C)Cc2ccccc2)n(C)n(-c2ccccc2)c1=O (stereo not shown) [ONC0005477, famprofazone]",115.2
3,"C=C(NNC(=S)NNC(=S)Nc1ccccc1Cl)c1ccccn1 [ONC0001982, n2chlorophenyl22e212pyridinylethylidenehydrazinocarbothioylhydrazinecarbothioamide]",78.69
4,"CCCCCCCCCCCCCCCC(=O)OC(C)C [ONC0002810, isopropyl palmitate]",113.7
5,"Nc1nc(Nc2ccc3c(c2)CC[C@@H](N2CCCC2)CC3)nn1-c1cc2c(nn1)-c1ccccc1CCC2 [ONC0005604, bemcentinib]",173.5
6,"COc1ccc(Cl)c(Nc2ncnc3cc(OCC4CCN(C)CC4)c(OC)cc23)c1 [ONC0001486, azm475271]",71.57
7,"NNCCc1ccccc1 [ONC0000514, phenelzine sulfate]",72.4
8,"CN1CC[C@@]2(C)c3cc(OC(=O)Nc4ccccc4)ccc3N(C)[C@@H]12 [ONC0005514, phenserine]",85.26
9,"Cn1ncnc1COc1nn2c(-c3c(F)cccc3F)nnc2cc1C1CCC1 [ONC0005565, mrk409]",118.6
10,"CC(=O)N1N=C(c2ccc(N)cc2)c2cc3c(cc2C[C@H]1C)OCO3 [ONC0000787, talampanel]",64.15
11,"C[C@H](NC(=O)[C@@H](Cc1c[nH]c2ccccc12)NC(=O)[C@@H](N)Cc1c[nH]cn1)C(=O)N[C@@H](Cc1c[nH]c2ccccc12)C(=O)N[C@H](Cc1ccccc1)C(=O)N[C@@H](CCCCN)C(N)=O [ONC0000387, u75799e] (H-H[dW]AW[dF]K-NH2)",86.22
12,"C=C1CC[C@H](O)C/C1=C/C=C1\CCC[C@]2(C)[C@@H]([C@H](C)CCCC(C)C)CC[C@@H]12 [ONC0003203, cholecalciferol]",65.15
13,"c1ccc(-c2n[nH]cc2-c2ccnc3ccccc23)nc1 [ONC0003126, ly364947]",69.96
14,"Oc1ccc(Cl)cc1 [ONC0000557, parachlorophenol]",69.2
15,"CCCCn1c(-c2ccccc2)nc(-c2ccccc2)c1CN(Cc1ccc2c(c1)OCO2)Cc1ccc2c(c1)OCO2 [ONC0002511, ndt9513727]",38.93
16,"COc1cc2c(NC3CCN(C(C)C)CC3)nc(C3CCCCC3)nc2cc1OCCCN1CCCC1 [ONC0001002, unc0638]",86.49
17,"O=c1[nH]nc2c3c(cccc13)N=C(CN1Cc3ccccc3C1)N2 [ONC0000970, e7449]",81.41
18,"Cc1ccnc(NC(=O)C(C)c2cccc(C(=O)c3ccccc3)c2)c1 (stereo not shown) [ONC0003716, piketoprofen]",97.11
19,"N=C(N)NC(=N)Nc1cccc(Cl)c1 [ONC0002486, mchlorophenylbiguanide]",76.46
20,"CC(Cc1cccc(C(F)(F)F)c1)NCCOC(=O)c1ccccc1 (stereo not shown) [ONC0003412, benfluorex hydrochloride]",115.7

row,Compound,% viability [%]
1,"CC(C)CNc1ccnc(NCc2csc(-c3ccccc3)n2)n1 [ONC0000380, khs101]",85.46
2,"CC(=O)Nc1ccc(C(=O)Nc2ccccc2N)cc1 [ONC0005213, ci994 tacedinaline]",115.9
3,"COc1cc2c(Nc3ccc(NC(=O)c4ccccc4)cc3)ncnc2cc1OCCCN1CCOCC1 [ONC0003607, zm447439]",145.2
4,"CC1(C)[C@@H]2CC[C@]1(C)C(=O)C2 [ONC0000752, camphor]",80.99
5,"COc1cccc2c1c(O)c(C(=O)N(C)c1ccc(C(F)(F)F)cc1)c(=O)n2C [ONC0001379, tasquinimod]",119.2
6,"CCOC(=O)C1=C(C)NC2=C(C(=O)CC(C)(C)C2)C1c1ccc(-c2ccccc2)cc1 (stereo not shown) [ONC0000150, itd1]",73.07
7,"CCCc1cc(C(N)=S)ccn1 [ONC0004191, protionamide]",96.24
8,"FC(F)(F)c1ccc(CNc2ccc(Cc3c[nH]c4ncccc34)cn2)cc1 [ONC0002656, plx647]",82.24
9,"O=C(O)C1CN(Cc2ccc(-c3nc4cc(Cc5ccccc5F)ccc4s3)c(F)c2)C1 [ONC0002231, tcsp14]",62.33
10,"C#Cc1cccc(Nc2ncnc3cc(OC)c(OCCCCCCC(=O)NO)cc23)c1 [ONC0004844, cudc101]",104.4
11,"Nc1nc2c(c(=O)[nH]1)NC(CNc1ccc(C(=O)N[C@@H](CCC(=O)O)C(=O)O)cc1)CN2 (stereo partly shown) [ONC0005519, tetrahydrofolicacid]",129.8
12,"CC(=O)S[C@@H]1CC2=CC(=O)CC[C@]2(C)[C@H]2CC[C@@]3(C)[C@@H](CC[C@@]34CCC(=O)O4)[C@H]12 [ONC0000548, spironolactone]",87.32
13,"Nc1n[nH]c2nnc(-c3c(-c4ccccc4)nn4ccccc34)cc12 [ONC0000331, fr180204]",55.14
14,"CO[C@H]1/C=C/O[C@@]2(C)Oc3c(C)c(O)c4c(O)c(c(/C=N/N5CCN(C6CCCC6)CC5)c(O)c4c3C2=O)NC(=O)/C(C)=C\C=C\[C@H](C)[C@H](O)[C@@H](C)[C@@H](O)[C@@H](C)[C@H](OC(C)=O)[C@@H]1C [ONC0002002, rifapentine]",77.39
15,"CC(C)(C)NC[C@@H](O)COc1cccc2c1CCCC2=O [ONC0002849, levobunolol]",116.9
16,"CC(=O)O[C@@H]1CC[C@@]2(C)C(CC[C@]3(C)C2C(=O)C=C2[C@@H]4[C@@H](C)[C@H](C)CC[C@]4(C)CC[C@]23C)[C@@]1(C)C(=O)O (stereo partly shown) [ONC0003387, acetyl11ketobetaboswellicacid]",70.79
17,"CC(C)Oc1ccc(-c2nc(-c3cccc4c3CC[C@@H]4NCCO)no2)cc1C#N [ONC0002409, ozanimod]",70.06
18,"CN1CCC(=C2c3ccccc3C=Cc3ccccc32)CC1 [ONC0004044, cyproheptadine hydrochloride]",60.6

# Laid out differently: 17 of the compounds above
row	Compound	% viability [%]
19	N=C(N)NC(=N)Nc1cccc(Cl)c1 [ONC0002486, mchlorophenylbiguanide]	76.46
20	CC(Cc1cccc(C(F)(F)F)c1)NCCOC(=O)c1ccccc1 (stereo not shown) [ONC0003412, benfluorex hydrochloride]	115.7
1	CC(C)CNc1ccnc(NCc2csc(-c3ccccc3)n2)n1 [ONC0000380, khs101]	85.46
2	CC(=O)Nc1ccc(C(=O)Nc2ccccc2N)cc1 [ONC0005213, ci994 tacedinaline]	115.9
4	CC1(C)[C@@H]2CC[C@]1(C)C(=O)C2 [ONC0000752, camphor]	80.99
5	COc1cccc2c1c(O)c(C(=O)N(C)c1ccc(C(F)(F)F)cc1)c(=O)n2C [ONC0001379, tasquinimod]	119.2
6	CCOC(=O)C1=C(C)NC2=C(C(=O)CC(C)(C)C2)C1c1ccc(-c2ccccc2)cc1 (stereo not shown) [ONC0000150, itd1]	73.07
7	CCCc1cc(C(N)=S)ccn1 [ONC0004191, protionamide]	96.24
8	FC(F)(F)c1ccc(CNc2ccc(Cc3c[nH]c4ncccc34)cn2)cc1 [ONC0002656, plx647]	82.24
9	O=C(O)C1CN(Cc2ccc(-c3nc4cc(Cc5ccccc5F)ccc4s3)c(F)c2)C1 [ONC0002231, tcsp14]	62.33
10	C#Cc1cccc(Nc2ncnc3cc(OC)c(OCCCCCCC(=O)NO)cc23)c1 [ONC0004844, cudc101]	104.4
11	Nc1nc2c(c(=O)[nH]1)NC(CNc1ccc(C(=O)N[C@@H](CCC(=O)O)C(=O)O)cc1)CN2 (stereo partly shown) [ONC0005519, tetrahydrofolicacid]	129.8
12	CC(=O)S[C@@H]1CC2=CC(=O)CC[C@]2(C)[C@H]2CC[C@@]3(C)[C@@H](CC[C@@]34CCC(=O)O4)[C@H]12 [ONC0000548, spironolactone]	87.32
13	Nc1n[nH]c2nnc(-c3c(-c4ccccc4)nn4ccccc34)cc12 [ONC0000331, fr180204]	55.14
14	CO[C@H]1/C=C/O[C@@]2(C)Oc3c(C)c(O)c4c(O)c(c(/C=N/N5CCN(C6CCCC6)CC5)c(O)c4c3C2=O)NC(=O)/C(C)=C\C=C\[C@H](C)[C@H](O)[C@@H](C)[C@@H](O)[C@@H](C)[C@H](OC(C)=O)[C@@H]1C [ONC0002002, rifapentine]	77.39
16	CC(=O)O[C@@H]1CC[C@@]2(C)C(CC[C@]3(C)C2C(=O)C=C2[C@@H]4[C@@H](C)[C@H](C)CC[C@]4(C)CC[C@]23C)[C@@]1(C)C(=O)O (stereo partly shown) [ONC0003387, acetyl11ketobetaboswellicacid]	70.79
17	CC(C)Oc1ccc(-c2nc(-c3cccc4c3CC[C@@H]4NCCO)no2)cc1C#N [ONC0002409, ozanimod]	70.06
